Laboratory results published in US20180177742A1 (priority 2015, published 2018).

Experiment: clinical
Settings: both, human, in vivo, iv, 0.7 mg/kg

With `CCN(CC)CC(=O)Nc1c(C)cccc1C` [lidocaine IV bolus, lidocaine] the AUC(0-inf) was 2000 ng·h/mL, the AUC(0-t) was 1980 ng·h/mL and the Cmax was 1780 ng/mL. The Tmax was 7.8 min.
